The results in this text go back to publication PMC3978657, “Early Steps in Autophagy Depend on Direct Phosphorylation of Atg9 by the Atg1 Kinase” (Molecular Cell, 2014).

No constants are given. Whether binding was seen depends on the method and setting. Binding seen in cells or lysates may run through a third protein. These calls come from enrichment with a bait or labelling near it, and not all partners need be listed. Where a sequence is shown, tags or fusion partners need not be part of it.

The target in this test is T1, TAP-tagged wild-type Atg1 (genomically integrated) (S. cerevisiae) (UniProt P53104).
T1 sequence: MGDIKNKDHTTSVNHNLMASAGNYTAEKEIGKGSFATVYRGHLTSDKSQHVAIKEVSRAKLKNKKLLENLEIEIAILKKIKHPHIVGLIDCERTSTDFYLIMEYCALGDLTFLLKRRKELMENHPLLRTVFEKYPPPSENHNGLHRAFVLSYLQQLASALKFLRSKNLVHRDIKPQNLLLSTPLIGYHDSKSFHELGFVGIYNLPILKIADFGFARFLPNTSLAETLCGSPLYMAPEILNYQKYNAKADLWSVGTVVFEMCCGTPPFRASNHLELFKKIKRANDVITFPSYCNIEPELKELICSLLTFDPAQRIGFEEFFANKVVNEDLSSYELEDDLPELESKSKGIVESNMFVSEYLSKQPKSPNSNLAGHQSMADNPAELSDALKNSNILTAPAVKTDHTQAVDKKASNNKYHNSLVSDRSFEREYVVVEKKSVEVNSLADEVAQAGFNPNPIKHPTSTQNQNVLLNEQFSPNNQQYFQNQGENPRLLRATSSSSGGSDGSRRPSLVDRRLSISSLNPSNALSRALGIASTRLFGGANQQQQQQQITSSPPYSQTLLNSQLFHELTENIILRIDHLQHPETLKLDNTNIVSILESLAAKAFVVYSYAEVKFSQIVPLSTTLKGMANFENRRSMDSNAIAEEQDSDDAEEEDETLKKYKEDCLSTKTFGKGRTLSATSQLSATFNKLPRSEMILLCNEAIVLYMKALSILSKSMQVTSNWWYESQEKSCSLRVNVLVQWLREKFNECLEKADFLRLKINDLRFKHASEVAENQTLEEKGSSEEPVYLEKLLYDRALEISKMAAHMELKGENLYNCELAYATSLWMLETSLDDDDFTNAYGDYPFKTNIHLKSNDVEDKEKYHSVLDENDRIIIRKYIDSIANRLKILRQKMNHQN
Put plainly: affinity purification with mass spectrometry; Atg1-TAP from rapamycin-treated yeast extract on IgG-coupled magnetic beads, 1 hr at 4°C, washed in lysis buffer (PBS, 10% glycerol, 0.5% Tween-20), eluted by TEV cleavage; silver-stained gel bands identified by mass spectrometry.

B1: Atg17 (protein, UniProt Q06410 1-417)
chain: MNEADVTKFVNNARKTLTDAQLLCSSANLRIVDIKKKLSSWQLSISKLNFLIVGLRQQGKFLYTILKEGIGTKLIQKQWNQAVLVVLVDEMKYWQYEITSKVQRLDGIVNELSISEKDDTDPSKLGDYISRDNVNLLNDKLKEVPVIERQIENIKLQYENMVRKVNKELIDTKLTDVTQKFQSKFGIDNLMETNVAEQFSRELTDLEKDLAEIMNSLTQHFDKTLLLQDKKIDNDEREELFKVVQGDDKELYNIFKTLHEVIDDVDKTILNLGQFLQAKIKEKTELHSEVSEIINDFNRNLEYLLIFKDISNLIDSFKNSCTQDIQTTKELCEFYDNFEESYGNLVLEAKRRKDVANRMKTILKDCEKQLQNLDAQDQEERQNFIAENGTYLPETIWPGKIDDFSSLYTLNYNVKNP
B1: the binding entry is “binds”.
